Source: patent JP2010011840A
No constants are given. Whether binding was seen depends on the method and setting. Some binding calls cover weakened binding; strength is not graded here.

Molecular target: 抗体41S-2の軽鎖(41S-2-L)
Test: ELISA screening of hybridomas

B1: i41-7完全抗体 (antibody, V domains shown)
VH: EIQLQQSGPELVRPGASVKVSCKASGYSFTNSIMYWVRQSHGKSLEWIGYIDPYNGGTSYNQKFKGKATLTVDKSSSTAFMHLNSLTSEDSAVYFCARFIVVVADVMDYWGQGTSVTVSS
VL: DIVMTQSHKFMSTSVGDRVSITCKASQDVSTAVAWYQQKPGQSPKLLIYWASTRHTEVPDRFTGSGSGTDYTLTISSVQAEDLALYYCQQHYNTPLTFGAGTKLELKR
binding: binds
